For one molecule, IC50 results are on record in patent publication US20250388542A1, “ANALOGUES OF PENTAMIDINE AND USES THEREFOR” (Auransa Inc., priority 2018, published 2025).

Broadly, the IC50 is the midpoint of a concentration-inhibition curve. High values mean a need for much substance, low ones inhibition by little substance.

For the experiment, the system named is MCF7. Description: CellTiter-Glo cytotoxicity, cancer cell line panel / breast cancer study. The class given is cell-based. Conditions: MCF7, Invasive ductal carcinoma. As to the method: The objective of this study is to investigate potential cell killing effect of Compounds 1-15 on 3 cancer cell lines. 50% inhibition concentration (IC50) was determined for these compounds in various cancer cell lines using CellTiter-Glo™ luminescent cell viability assay at different compound concentrations. Each cell line (e.g., NCI-H209; NCI-H69; and SW1271) was treated with Compounds 1-15 and culture medium contains 0.2% [v/v] DMSO vehicle control. All the cells were cultured in the media supplemented with 10-20% fetal bovine serum at 37° C., 5% CO2 and 95% humidity.
The objective of this study is to investigate the effect of Compound 1 on cytotoxicity against 61 different types of cancer cell lines. IC50 were values were obtained using CellTiter-Glo™ as described above. […]
The objective of this study is to investigate the effect of Compound 1 on cell viability of various types of breast cancer. […] The raw data values from the CellTiter-Glo™ cell viability assay expressed in relative luminescence units were normalized to the vehicle for each individual plate, and any reduction in luminescence indicated a decrease in viability (%). The data was analyzed in GraphPad PRISM using a non-linear sigmoidal plot with variable slope (asymmetric four-point linear regression), and an IC50 value for each compound was generated. […]
(Cellular ATP, detected with luciferase, serves as a proxy for viable cell number.)

As to `N.N.[Cl][Pt][Cl]` [Cisplatin, cisplatin, reference compound], the IC50 was determined as 690 nM.
